Laboratory results reported in PubChem BioAssay AID504834 (National Center for Advancing Translational Sciences (NCATS), 2011).
In all, about 320,000 compounds went through this assay and about 22,000 (6.9%) were called active. The inconclusive results got no clear call from the source; some entries with a clear call stand among them for comparison. Calls come from the whole dose curve; as a rule, active = well fitted inhibition curve with a large enough effect; inconclusive = small, poorly fitted or top-dose-only effect, or another doubt; inactive = no such curve, though single readings can be large or run the other way. Potencies of inconclusive entries are doubtful fits and often do not repeat.

Experiment: Primary qHTS for delayed death inhibitors of the malarial parasite plastid, 96 hour incubation
Conditions: P. falciparum luciferase reporter growth; series mostly up to 28.7 µM; activity change, negative = inhibition: at the top concentration
Outline: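 Compounds incubated with erythrocytes infected by luciferase-expressing P. falciparum (2% hematocrit, 0.05% parasitemia final) for 96 hours, 37 C in 5% CO2. Growth inhibition scored as decreased luciferase luminescence.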
% is set by controls: 0 for no effect and ±100 for the full control effect; potency is the fitted concentration of half-maximal effect.

Compound | Potency | activity change, negative = inhibition
C=CCNC(=O)CCCc1ccccc1 | inconclusive: 10.4 µM [inhibitor, partial curve, poor fit] | –
CCc1ccc(CN2CCN(Cc3cc(Br)ccc3O)CC2)cc1 | active: 1.17 µM | –
CCN(c1ccccc1)S(=O)(=O)c1ccc(C(=O)N(CCCN(C)C)c2nc3c(C)cccc3s2)cc1 | active: 9.28 µM | –
CN(C)C(CNC(=O)CN1C(=O)NC2(CCc3ccccc32)C1=O)c1ccco1 (configuration not stated) | – | inactive: -12.3%
Cc1cc(C)c2c3c(sc2n1)C(c1cccc(F)c1)C(C#N)=C(N)O3 (configuration not stated) | inconclusive: 9.28 µM [inhibitor, single point] | –
COc1ccc(CC(=O)Nc2ccc3nc(SC)sc3c2)cc1OC | inconclusive: 2.94 µM [inhibitor, partial curve, poor fit] | –
Cn1c(Cc2cccs2)nnc1SCC(=O)Nc1ccccc1F | – | inactive: 1.04%
COc1ccc(CN2CC[C@@H](N3CCOCC3)[C@H](O)C2)cc1F | inconclusive: 8.28 µM [inhibitor, partial curve, poor fit] | –
Cc1c(NC(=S)NC(=O)C(C)(C)C)cccc1[N+](=O)[O-] | inconclusive: 18.5 µM [inhibitor, single point] | –
Cc1ccc(S(=O)(=O)N2c3ccccc3OCC2c2ccccc2)cc1 (configuration not stated) | inconclusive: 8.28 µM [inhibitor, partial curve, poor fit] | –
CCN(CC)Cc1c(O)ccc2c1O/C(=C\C=C\c1ccccc1)C2=O | inconclusive: 1.65 µM [inhibitor, full curve] | –
COc1ccc(C2CC(c3ccc(OC)cc3OC(C)=O)=NN2C(=O)c2ccccc2)cc1 (configuration not stated) | inconclusive: 0.928 µM [inhibitor, full curve] | –
CN1c2ccc([N+](=O)[O-])cc2CC2(C(=O)NC(=O)N(c3ccccc3)C2=O)C1c1ccccc1 (configuration not stated) | active: 2.94 µM | –
O=C(CNC(=O)c1cccc(OC(F)F)c1)OCn1nnc2ccccc2c1=O | – | inactive: 2.98%
O=C(Nc1cccc(O)c1)c1ccc(NC(=O)c2cccs2)cc1 | – | inactive: -14.4%
COC(=O)[C@@]1(Cc2ccc(F)cc2)[C@H]2c3cc(C(=O)N(C)C)n(Cc4ccccn4)c3C[C@H]2CN1C(=O)c1ccccc1 | active: 2.94 µM | –
O=C(CC1C(=O)NCCN1Cc1c(F)cccc1Cl)NCCCn1ccnc1 (configuration not stated) | – | inactive: 16.1%
Cc1ccc(C(=O)N2CCN(S(=O)(=O)c3ccccc3C#N)CC2)cc1S(=O)(=O)N1CCOCC1 | inconclusive: 14.7 µM [inhibitor, partial curve, poor fit] | –
COC(=O)[C@]1(Cc2ccccc2)N[C@H](c2ccc(-c3ccc(F)cc3)cc2)[C@@H]2C(=O)N(C)C(=O)[C@@H]21 | active: 13.1 µM | –
C=CCn1c(-c2cccnc2Cl)nc2cc(Cl)c(Cl)cc21 | inconclusive: 0.0037 µM [inhibitor, full curve, poor fit] | –
CC1C(=O)Nc2ccc(S(=O)(=O)NCCc3ccc(Cl)cc3)cc2NC1=O (configuration not stated) | – | inactive: 0.0037%

In the list so far, these contain a nitro group on carbon:
Compound | Potency | activity change, negative = inhibition
Cc1c(NC(=S)NC(=O)C(C)(C)C)cccc1[N+](=O)[O-] | inconclusive: 18.5 µM [inhibitor, single point] | –
CN1c2ccc([N+](=O)[O-])cc2CC2(C(=O)NC(=O)N(c3ccccc3)C2=O)C1c1ccccc1 (configuration not stated) | active: 2.94 µM | –

(next part)

Compound | Potency | activity change, negative = inhibition
Cc1ccc(S(=O)(=O)N2CCN(c3ccc(N4CCOCC4)nn3)CC2)cc1[N+](=O)[O-] | inconclusive: 0.208 µM [inhibitor, full curve] | –
COCc1cc(C)nc(OCC(=O)N/N=C/c2cc(C)n(-c3c(C)cccc3C)c2C)c1C#N | inconclusive: 10.4 µM [inhibitor, partial curve, poor fit] | –
Cc1c(-n2cc(C(=O)c3cc(Br)ccc3O)cc(C#N)c2=O)c(=O)n(-c2ccccc2)n1C | inconclusive: 10.4 µM [inhibitor, single point] | –
COc1ccc(CCNC(=O)c2ccc(Cl)c(S(=O)(=O)N3CCCCCC3)c2)cc1 | inconclusive: 10.4 µM [inhibitor, single point] | –
CC1CC(C)CN(C(=O)COC(=O)CCCN2C(=O)c3cccc4cccc(c34)C2=O)C1 (configuration not stated) | – | inactive: 6.28%
COc1ccc(C(=O)NNS(=O)(=O)c2ccc(OC)cc2)cc1 | inconclusive: 18.5 µM [inhibitor, single point] | –
Cn1c(CNC(=O)c2ccco2)nnc1SCC(=O)N1CCN(c2ccccc2F)CC1 | inconclusive: 18.5 µM [inhibitor, single point] | –
COc1ccc(Cl)cc1NC(=O)CN(C)C(=O)c1cc(-c2cccs2)nn1-c1ccccc1 | inconclusive: 18.5 µM [inhibitor, single point] | –
Cc1ccccc1C(=O)OCC(=O)NCC1COc2ccccc2O1 (configuration not stated) | – | inactive: 37.1%
O=C(CCSc1nnc2ccccn12)Nc1ccc2c(c1)OCO2 | – | inactive: -2.09%
Cc1cc(NC(=O)CCC(=O)N(Cc2ccco2)C2(C(=O)NC3CCCCC3)CCN(C)CC2)no1 | inconclusive: 14.7 µM [inhibitor, partial curve, poor fit] | –
O=C(NCCNc1ccc([N+](=O)[O-])cc1C(F)(F)F)c1ccccc1F | inconclusive: 18.5 µM [inhibitor, single point] | –
CCOC(=O)N1CCC(NC(=O)c2cc(COc3ccc(F)cc3Cl)on2)CC1 | – | inactive: 34.9%
CCN(Cc1ccccc1)C(=O)c1ccc(C)c(S(=O)(=O)N2CCCCC2)c1 | inconclusive: 10.4 µM [inhibitor, single point] | –
CCCCCCC(C)(C)c1ccc([C@@H]2C[C@H](O)CC[C@H]2CCCO)c(O)c1 | active: 5.22 µM | –
COc1ccc(-c2noc(CCC(=O)NC3CCCC3)n2)cc1 | inconclusive: 18.5 µM [inhibitor, single point] | –
CCOC(=O)/C(C#N)=C/c1ccc(OCC(=O)Nc2cc(C)ccc2C)c(OC)c1 | inconclusive: 18.5 µM [inhibitor, single point] | –
CNC(=S)N/N=C/c1c(C)nn(-c2ccc(F)cc2)c1Cl | inconclusive: 11.7 µM [inhibitor, single point] | –
Cc1cc2nc3n(c2cc1C)CC1CC(C(=O)NCc2ccco2)N(C)C31 (configuration not stated) | inconclusive: 18.5 µM [inhibitor, single point] | –
Cc1ccc(NC(=S)N(Cc2ccc(Br)cc2)Cc2ccc(C(=O)O)cc2)cc1C | inconclusive: 3.7 µM [inhibitor, single point] | –
Cc1ccc(C)c(S(=O)(=O)N2CCN(C(=O)CCNS(=O)(=O)c3ccccc3)CC2)c1 | inconclusive: 11.7 µM [inhibitor, single point] | –
